Among all 320,000 compounds or so, about 22,000 (6.9%) were called active. The inconclusive results got no clear call from the source; some entries with a clear call stand among them for comparison. Calls follow the shape of the dose curve; as a rule, active = well fitted inhibition curve with a large enough effect; inconclusive = small, poorly fitted or top-dose-only effect, or another doubt; inactive = no such curve, though single readings can be large or run the other way. A potency beside an inconclusive call is a rough fit, not a confirmed value.
Experiment: Primary qHTS for delayed death inhibitors of the malarial parasite plastid, 96 hour incubation
Conditions: P. falciparum luciferase reporter growth; series mostly up to 28.7 µM; activity change, negative = inhibition: at the top concentration
Outline: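 Infected RBCs, 2% Hct / 0.05% parasitemia final; luciferase-reporter P. falciparum; cpd 96 h, 37 C, 5% CO2; luciferase detection reagent; luminescence.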
% is scaled to controls: 0 for no effect and ±100 for the full control effect; potency is read from the fitted curve at half-maximal effect.

| Structure (SMILES) | Potency | activity change, negative = inhibition |
| --- | --- | --- |
| CC1=C(C(=O)Nc2ccccn2)C(c2cccnc2)n2nnnc2N1 (centres undefined) | inconclusive: 0.522 µM [inhibitor, full curve, poor fit] | – |
| COc1nn(C(C)C(=O)N2N=C(C(F)F)CC2(O)C(F)F)cc1[N+](=O)[O-] (centres undefined) | – | inactive: -11.7% |
| COc1ccc(NC(=O)COc2ccc(Br)cc2)c(OC)c1 | inconclusive: 10.4 µM [inhibitor, single point] | – |
| COc1cc(OC)cc(C(=O)N2CCN(c3ccc(N4CCOCC4)nn3)CC2)c1 | inconclusive: 4.65 µM [inhibitor, partial curve] | – |
| COc1ccccc1C1CC(c2ccc(Cl)cc2)Nc2nc(N)nn21 (centres undefined) | inconclusive: 11.7 µM [inhibitor, single point] | – |
| O=C(/C=C/c1ccccc1)NC1CCSC1=O (centres undefined) | active: 10.4 µM | – |
| CN(c1ccccc1)S(=O)(=O)c1cccc(NS(=O)(=O)c2ccc(/C=C/C(=O)O)cc2)c1 | inconclusive: 0.415 µM [inhibitor, partial curve, poor fit] | – |
| COC(=O)CC1COc2ccccc2N1S(=O)(=O)c1ccc(OC)cc1 (centres undefined) | inconclusive: 5.86 µM [inhibitor, partial curve] | – |
| Cc1cccn2c(=O)c3cc(C#N)c(=NC(=O)c4ccco4)n(Cc4ccco4)c3nc12 | inconclusive: 2.94 µM [inhibitor, partial curve] | – |
| Cc1ccc(Nc2c(-c3ccccc3O)nc3ncccn23)cc1 | inconclusive: 18.5 µM [inhibitor, single point] | – |
| O=C1c2ccccc2C(O)(c2ccccc2)N1c1ccncc1 (centres undefined) | inconclusive: 5.86 µM [inhibitor, partial curve, poor fit] | – |
| Cc1cc(C)c(S(=O)(=O)c2ccccc2C)c(OCC(C)(C)C)n1 | inconclusive: 14.7 µM [inhibitor, single point] | – |
| N#C/C(=N/O)c1nc(-c2ccc(F)cc2)cs1 | – | inactive: -3.15% |
| Cc1cc(C)cc(NC(=O)N2CCNC(=O)C2CC(=O)Nc2cc(Cl)ccc2Cl)c1 (centres undefined) | inconclusive: 18.5 µM [inhibitor, single point] | – |
| COCCNC(=O)C(c1ccncc1)N(C(=O)Cn1nnc2ccccc21)c1ccc(OC)cc1 (centres undefined) | – | inactive: -27.1% |
| O=C(N/N=C/c1cccnc1)c1ccc(NC(=O)c2ccc(F)cc2)cc1 | – | inactive: 9.05% |
| CS(=O)(=O)N1CCN(c2ccc([N+](=O)[O-])c(NCc3ccccc3)c2)CC1 | inconclusive: 18.5 µM [inhibitor, single point] | – |
| Cc1ccc(S(=O)(=O)Cn2nnnc2C(CC(C)C)N2CCN(c3ccc(F)cc3)CC2)cc1 (centres undefined) | inconclusive: 5.22 µM [inhibitor, partial curve] | – |
| Nc1nc2ncc(C(=O)c3cc(F)ccc3O)cc2s1 | inconclusive: 9.28 µM [inhibitor, partial curve] | – |
| Cn1c(=O)c2sc3c(c2n(CC(=O)Nc2ccccc2)c1=O)COC(C)(C)C3 | inconclusive: 14.7 µM [inhibitor, single point] | – |
| NNC(=O)CCCCCCCCCCOCCCCO | inconclusive: 0.0033 µM [inhibitor, full curve, poor fit] | – |
| Cc1ccc(NC(=O)c2noc3c2CCC3)cc1C | inconclusive: 18.5 µM [inhibitor, single point] | – |
| CC(=O)N1C(C(=O)O)Cc2c([nH]c3ccccc23)C1(C)C (centres undefined) | – | inactive: -6.18% |

Full records, quoted from the list:
Cc1cc(C)cc(NC(=O)N2CCNC(=O)C2CC(=O)Nc2cc(Cl)ccc2Cl)c1 (centres undefined) as listed: Potency: inconclusive: 18.5 µM [inhibitor, single point]
Cc1cccn2c(=O)c3cc(C#N)c(=NC(=O)c4ccco4)n(Cc4ccco4)c3nc12 as listed: Potency: inconclusive: 2.94 µM [inhibitor, partial curve]
COc1ccccc1C1CC(c2ccc(Cl)cc2)Nc2nc(N)nn21 (centres undefined) as listed: Potency: inconclusive: 11.7 µM [inhibitor, single point]
O=C(/C=C/c1ccccc1)NC1CCSC1=O (centres undefined) as listed: Potency: active: 10.4 µM

More structures.

| Structure (SMILES) | Potency | activity change, negative = inhibition |
| --- | --- | --- |
| Cc1c(C)c(C)c2[nH]c(-c3ccc4c(c3)OCO4)nc2c1C | active: 2.08 µM | – |
| O=C1NC(=O)C2(Cc3ccccc3N3CCCC32)C(=O)N1c1ccccc1 (centres undefined) | inconclusive: 20.8 µM [inhibitor, partial curve, poor fit] | – |
| O=C(Nc1ccc(S(=O)(=O)N2CCOCC2)cc1)C1CCN(S(=O)(=O)c2ccccc2)CC1 | active: 2.94 µM | – |
| OCC1(Cc2cccc(C(F)(F)F)c2)CCN(Cc2cc3ccccc3o2)CC1 | – | inactive: -20.9% |
| CC(=O)Nc1sc(C)c(C)c1C(=O)OCC(=O)N(CCC#N)c1cc(C)cc(C)c1 | inconclusive: 18.5 µM [inhibitor, single point] | – |
| CCCCOc1ccc(C2/C(=C(\O)c3ccc4c(c3)OCCO4)C(=O)C(=O)N2CCCN2CCOCC2)cc1 (centres undefined) | inconclusive: 18.5 µM [inhibitor, single point] | – |
| Cc1cccc(C(=O)OC(C)CN2CCN(C)CC2)c1 (centres undefined) | – | inactive: 46.6% |
| O=C(N/N=C/c1ccco1)c1ccc(NC(=O)c2ccc(Cl)cc2)cc1 | – | inactive: 5.22% |
| O=C(CCSc1ccc(Cl)cc1)c1ccco1 | inconclusive: 0.586 µM [inhibitor, partial curve, poor fit] | – |
| CN1C(=O)c2c(sc3c2CCCC3)NC1c1ccccc1O (centres undefined) | – | inactive: 3.89% |
| COC(=O)c1cccnc1Oc1ccccc1 | active: 0.657 µM | – |
| CCOC(=O)NN1C(=O)c2ccccc2NC1c1cccs1 (centres undefined) | – | inactive: 11.9% |
| Cc1cccc(NS(=O)(=O)c2ccc(-c3cnc(C4CC4)o3)cc2)c1 | inconclusive: 14.7 µM [inhibitor, single point] | – |
| COc1cccc(NC(=O)c2cc(C(=O)Nc3cccc(OC)c3)n(C)n2)c1 | inconclusive: 4.15 µM [inhibitor, partial curve] | – |
| COc1ccccc1Nc1nn2c(=O)c3ccc(C(=O)NCc4cccnc4)cc3nc2s1 | – | inactive: 7.74% |
| Cc1ccccc1NC(=S)NCc1ccc(F)cc1 | inconclusive: 3.7 µM [inhibitor, single point] | – |
| NC(=S)N=Nc1c(O)n(CCCl)c2ccc(Br)cc12 | inconclusive: 10.4 µM [inhibitor, partial curve] | – |
| Cc1ccc([N+](=O)[O-])cc1-c1ccc2cccc(C)c2n1 | inconclusive: 18.5 µM [inhibitor, single point] | – |
| CCC(C)NC(=O)c1c(-c2cc(Cl)c(OC)c(Cl)c2)noc1C (centres undefined) | inconclusive: 10.4 µM [inhibitor, single point] | – |
| COc1cc2c(cc1OC)C(C)N(C(=O)Nc1cc(C)cc(C)c1)CC2 (centres undefined) | inconclusive: 4.65 µM [inhibitor, partial curve] | – |
| COc1cccc(/C=C2\C(=O)N(c3cccc(C)c3)C(=O)c3ccccc32)c1 | inconclusive: 3.29 µM [inhibitor, partial curve, poor fit] | – |
| CCOC(=O)c1cnc2c(OC)cccc2c1N1CCN(c2ccccc2OC)CC1 | – | inactive: 12% |
| O=C(NCc1cccnc1)C1c2ccccc2C(=O)N1Cc1ccccc1 (centres undefined) | inconclusive: 11.7 µM [inhibitor, single point] | – |

| Structure (SMILES) | Potency | activity change, negative = inhibition |
| --- | --- | --- |
| COc1ccc(S(=O)(=O)NCc2cccnc2)cc1NC(=O)c1ccc(C)cc1 | inconclusive: 8.28 µM [inhibitor, partial curve] | – |
| CSc1nc2ccc(NS(=O)(=O)c3ccc(CNC(C)=O)cc3)cc2s1 | inconclusive: 4.15 µM [inhibitor, single point] | – |
| CCCc1nc2ccccc2c(=O)n1/N=C/c1ccc(O)cc1O | inconclusive: 18.5 µM [inhibitor, single point] | – |
| CCOc1ccc(NS(=O)(=O)c2ccc(C(=O)NCC(c3ccc(OC)cc3)N3CCCC3)cc2)cc1 (centres undefined) | active: 13.1 µM | – |
| CCCCC1CCC(C(=O)OC(C)C(=O)Nc2ccc(NC(C)=O)cc2)CC1 (centres undefined) | – | inactive: 4.8% |
| CC(=O)C1=C(C)Nc2ncnn2C1c1ccc(Cl)cc1 (centres undefined) | inconclusive: 11.7 µM [inhibitor, single point] | – |
| O=C(N/N=C/c1cc2c(cc1Cl)OCO2)c1cccc(Br)c1 | inconclusive: 11.7 µM [inhibitor, single point] | – |
| CC(C)(C)C1CCc2c(sc(NC(=O)c3ccco3)c2C(N)=O)C1 (centres undefined) | inconclusive: 13.1 µM [inhibitor, single point] | – |
| Cn1cccc1CNC(=S)Nc1ccccc1Cl | inconclusive: 4.65 µM [inhibitor, partial curve, poor fit] | – |
| CCOC(=O)N1CCN(C(=O)CSc2ccccc2)CC1 | – | inactive: 19% |
| O=C(/C=C/c1ccccc1)C1=C(O)C(=O)N(CCO)C1c1ccc2c(c1)OCO2 (centres undefined) | – | inactive: -6.44% |
| O=C(CSc1nc2ccccc2[nH]1)NCC1CCCO1 (centres undefined) | – | inactive: 18.9% |
| CN(C)CCNc1ncnc2c1cnn2-c1ccc(Cl)cc1 | inconclusive: 3.7 µM [inhibitor, partial curve, poor fit] | – |
| CCC1=NN(C(=O)Cc2ccccc2)C(O)(c2ccncc2)C1 (centres undefined) | inconclusive: 4.15 µM [inhibitor, partial curve, poor fit] | – |
| O=C(CCNC(=O)c1ccc(Cl)cc1)NCc1cccc(C(F)(F)F)c1 | inconclusive: 11.7 µM [inhibitor, single point] | – |
| COc1ccc(-n2cnc3c(sc4nc(N5CCOCC5)c5c(c43)CCCC5)c2=O)cc1 | active: 2.94 µM | – |
| CC(C)C[C@H](NC(=O)c1nc[nH]c1C(=O)N1CCc2ccccc2C1)C(=O)OC(C)(C)C | – | inactive: -17.2% |
| CCOC(=O)N1CCN(C(=O)CSc2ccc(-c3ccc(OC)c(OC)c3)nn2)CC1 | inconclusive: 3.7 µM [inhibitor, partial curve] | – |
| CC(CCCC(C)(C)O)NC(=O)c1ccc(OC2CCN(C(=O)C3CC3)CC2)cc1 (centres undefined) | inconclusive: 2.08 µM [inhibitor, full curve, poor fit] | – |
| Clc1ccc(-n2nnnc2CN2CCCCC2)cc1Cl | inconclusive: 10.4 µM [inhibitor, single point] | – |
| Cc1ccc(C(=O)Oc2cc(-c3ccccc3)no2)cc1 | inconclusive: 0.0026 µM [inhibitor, full curve, poor fit] | – |
| COc1ccc(OC)c(Nc2nc(C)nc3c2oc2ccccc23)c1 | inconclusive: 9.28 µM [inhibitor, single point] | – |
| CCOC(=O)C1(CCc2ccccc2)CCN(C2Cc3ccccc3C2)CC1 | – | inactive: -27.1% |
